Measurements taken from PubChem BioAssay AID256 (DTP/NCI, 2004).
The list is a part of this screen's results and no random one: it gathers tests that were run many times, whatever their T/C, doses with no T/C, and many T/C values between a quarter and a half above the control. Further doses and runs are listed elsewhere. T/C: endpoint of the treated group in % of that of the vehicle group. Some entries give survivors of the animals treated and no T/C: the source files T/C as zero there, which appears to mark a toxic dose or a test without result, not a measured value. Some doses without a T/C left all or most animals alive at the check, yet need not have been tolerated: the source hardly ever lists a survival T/C far under the control, and the zero likely stands for such cases as well. Counts of survivors are from the toxicity check (mostly the fifth day) where no day follows; animals may have died later. Schedules are NCI's codes, taken here to give the interval after Q, in days (D) or hours (H), and the number of doses after X. Some entries hold several experiments; their values stand side by side, smallest first. Where survival is the endpoint, this PubChem deposit counts one and a half times the control or more as active, and values a quarter to a half above the control carry no call in these data; other NCI protocols may use other cut-offs.

System: CD2F1 mice, L1210 leukemia ip, survival T/C
Experiment: NCI In Vivo Anticancer Drug Screen. Data for tumor model L1210 Leukemia (intraperitoneal) in CD2F1 (CDF1) mice
Conditions: higher T/C = longer survival
Summary of the method: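 Tumor-bearing mice (transplanted tumor) were split into treated and vehicle control groups, and the measured endpoint of each treated group was divided by that of its vehicle controls.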

[1] = T/C endpoint: mean survival time, dose: 400.0 mg/kg/injection, schedule: Q01DX009 (ip), vehicle: saline
[2] = T/C endpoint: mean survival time, dose: 100.0 mg/kg/injection, schedule: Q01DX009 (ip), vehicle: Klucel (hydroxypropylcellulose) (HPC)
[3] = T/C endpoint: mean survival time, dose: 200.0 mg/kg/injection, schedule: Q01DX009 (ip), vehicle: Klucel (hydroxypropylcellulose) (HPC)
[4] = T/C endpoint: mean survival time, dose: 400.0 mg/kg/injection, schedule: Q01DX009 (ip), vehicle: saline with Tween-80
[5] = T/C endpoint: mean survival time, dose: 200.0 mg/kg/injection, schedule: Q01DX009 (ip), vehicle: saline with Tween-80
[6] = T/C endpoint: mean survival time, dose: 400.0 mg/kg/injection, schedule: Q01DX009 (ip), vehicle: Klucel (hydroxypropylcellulose) (HPC)

C=C1C(=O)C2=CC1CCC(=O)C1(C)CCC(OC(C)=O)C(C)(C)C1CC2O (centres undefined)
survivor count (T/C endpoint: mean survival time, dose: 120.0 mg/kg/injection, schedule: Q01DX009 (ip), vehicle: Klucel (hydroxypropylcellulose) (HPC)): 0 of 6

CC1=CC(C)=Nc2ccc(Cl)cc2N1
survivor count (T/C endpoint: mean survival time, dose: 100.0 mg/kg/injection, schedule: Q01DX009 (ip), vehicle: saline): 6 of 6 | survivor count (T/C endpoint: mean survival time, dose: 200.0 mg/kg/injection, schedule: Q01DX009 (ip), vehicle: saline): 6 of 6 | survivor count [1]: 2 of 6

CC1C=NNC1=O (centres undefined)
T/C [2]: 132 % of control | T/C [3]: 147 % of control | T/C (T/C endpoint: mean survival time, dose: 256.0 mg/kg/injection, schedule: Q01DX009 (ip), vehicle: saline): 125 % of control | T/C [1]: 139 % of control | T/C (T/C endpoint: mean survival time, dose: 512.0 mg/kg/injection, schedule: Q01DX009 (ip), vehicle: saline): 132 % of control

CCCCCCCN(CCCCCCC)CC(O)c1cc2ccc(Br)cc2c2cccnc12 (centres undefined)
survivor count [4]: 4 of 6

CNc1ncnc2c1cnn2C1OC(CO)C(O)C1O (centres undefined)
survivor count (T/C endpoint: mean survival time, dose: 100.0 mg/kg/injection, schedule: Q01DX005 (ip), vehicle: water): 5 of 6 | survivor count (T/C endpoint: mean survival time, dose: 200.0 mg/kg/injection, schedule: Q01DX005 (ip), vehicle: water): 0 of 6

C[N+](C)(C)c1cc2c(nn1)Nc1ccccc1S2
survivor count (T/C endpoint: mean survival time, dose: 200.0 mg/kg/injection, schedule: Q04DX003 (ip), vehicle: saline): 0 of 6

Cc1ccc(C2=NNc3n[nH]c(=S)n3N2)cc1
survivor count [4]: 3 of 6

NC(CS(=O)c1ccc(Cl)cc1)C(=O)O (centres undefined)
survivor count (T/C endpoint: mean survival time, dose: 50.0 mg/kg/injection, schedule: Q01DX009 (ip), vehicle: saline with Tween-80): 3 of 6 | survivor count (T/C endpoint: mean survival time, dose: 100.0 mg/kg/injection, schedule: Q01DX009 (ip), vehicle: saline with Tween-80): 3 of 6 | survivor count [5]: 0 of 6

C(/C=C\c1ccccc1)=Nc1ccccc1
survivor count (T/C endpoint: mean survival time, dose: 200.0 mg/kg/injection, schedule: Q01DX001 (ip), vehicle: saline sonified): 1 of 6 | survivor count (T/C endpoint: mean survival time, dose: 400.0 mg/kg/injection, schedule: Q01DX001 (ip), vehicle: saline sonified): 0 of 6

Nc1ncnc2c1ncn2C1OC(CO)C(O)C1O (centres undefined)
survivor count (T/C endpoint: mean survival time, dose: 50.0 mg/kg/injection, schedule: Q01DX009 (ip), vehicle: Klucel (hydroxypropylcellulose) (HPC)): 5 of 10 | survivor count [2]: 0 of 10 | T/C (T/C endpoint: mean survival time, dose: 160.0 mg/kg/injection, schedule: Q03HX024 (ip), vehicle: saline with Tween-80): 128 and 140 % of control | survivor count [3]: 0 of 10 | T/C (T/C endpoint: mean survival time, dose: 240.0 mg/kg/injection, schedule: Q03HX024 (ip), vehicle: saline with Tween-80): 138 and 144 % of control | T/C (T/C endpoint: mean survival time, dose: 300.0 mg/kg/injection, schedule: Q03HX024 (ip), vehicle: saline with Tween-80): 135 % of control | T/C (T/C endpoint: mean survival time, dose: 320.0 mg/kg/injection, schedule: Q03HX024 (ip), vehicle: saline with Tween-80): 149 % of control | survivor count [6]: 0 of 10 | T/C (T/C endpoint: mean survival time, dose: 600.0 mg/kg/injection, schedule: Q01DX009 (ip), vehicle: saline): 127 % of control | survivor count (T/C endpoint: median survival time, dose: 50.0 mg/kg/injection, schedule: Q01DX009 (ip), vehicle: saline): 7 of 8 | survivor count (T/C endpoint: median survival time, dose: 100.0 mg/kg/injection, schedule: Q01DX009 (ip), vehicle: saline): 2 of 5 and 5 of 8

COc1cc(Cl)ccc1NC(=O)Nc1c(C)n(C)n(-c2ccccc2)c1=O
survivor count [5]: 3 of 3

Cc1cn(C2CC(OS(C)(=O)=O)C(COC(c3ccccc3)(c3ccccc3)c3ccccc3)O2)c(=O)[nH]c1=O (centres undefined)
survivor count (T/C endpoint: mean survival time, dose: 100.0 mg/kg/injection, schedule: Q01DX005 (ip), vehicle: other): 6 of 6

C[N+]1(C)CCC(c2ccccc2)(c2ccccc2)C(=O)C1
survivor count (T/C endpoint: mean survival time, dose: 300.0 mg/kg/injection, schedule: Q01DX001 (ip), vehicle: saline): 0 of 6

CSc1cc(C)[o+]c(C)c1
survivor count [6]: 0 of 6
